Assay: peptide synthesis
Conditions: whole synthesis, RP-HPLC

KWKSFIKKLTSKFLHSAKKF-NH2
final HPLC purity: 92.3%
